Measurements taken from paper PMC6737378, “Molecular Basis for ATP-Hydrolysis-Driven DNA Translocation by the CMG Helicase of the Eukaryotic Replisome” (Cell Reports, 2019).
Results are given in words; binding and its absence hold for the method and conditions named. Some binding calls cover weakened binding; strength is not graded here. For some assays here: Where a sequence is shown, tags or fusion partners need not be part of it.

Chains of the proteins cited; added tags and fusions are not shown. Lines headed by an entry give the natural chain unless they say otherwise; changes in a name come on top.
UniProt P49735: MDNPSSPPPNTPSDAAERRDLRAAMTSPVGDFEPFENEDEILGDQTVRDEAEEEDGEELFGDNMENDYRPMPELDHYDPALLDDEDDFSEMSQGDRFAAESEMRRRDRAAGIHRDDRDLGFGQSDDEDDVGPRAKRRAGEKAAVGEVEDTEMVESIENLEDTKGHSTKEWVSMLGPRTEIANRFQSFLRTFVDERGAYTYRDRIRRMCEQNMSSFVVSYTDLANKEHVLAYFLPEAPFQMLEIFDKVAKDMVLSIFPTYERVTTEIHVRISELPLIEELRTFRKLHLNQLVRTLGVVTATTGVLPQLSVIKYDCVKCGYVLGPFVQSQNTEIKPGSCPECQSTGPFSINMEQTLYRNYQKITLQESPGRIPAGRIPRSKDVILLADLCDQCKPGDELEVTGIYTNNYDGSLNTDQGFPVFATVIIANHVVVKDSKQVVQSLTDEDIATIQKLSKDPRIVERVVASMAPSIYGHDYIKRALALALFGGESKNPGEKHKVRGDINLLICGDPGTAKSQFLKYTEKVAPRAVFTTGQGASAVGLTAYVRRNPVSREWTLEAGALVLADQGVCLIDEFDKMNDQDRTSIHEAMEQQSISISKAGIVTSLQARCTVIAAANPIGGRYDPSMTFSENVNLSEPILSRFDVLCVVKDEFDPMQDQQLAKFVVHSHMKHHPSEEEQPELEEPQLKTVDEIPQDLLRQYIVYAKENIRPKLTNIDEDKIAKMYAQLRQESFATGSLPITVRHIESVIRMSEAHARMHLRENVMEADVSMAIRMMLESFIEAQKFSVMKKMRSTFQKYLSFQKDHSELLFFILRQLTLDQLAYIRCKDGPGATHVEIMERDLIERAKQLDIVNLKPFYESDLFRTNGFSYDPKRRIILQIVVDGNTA
UniProt Q9XYU1: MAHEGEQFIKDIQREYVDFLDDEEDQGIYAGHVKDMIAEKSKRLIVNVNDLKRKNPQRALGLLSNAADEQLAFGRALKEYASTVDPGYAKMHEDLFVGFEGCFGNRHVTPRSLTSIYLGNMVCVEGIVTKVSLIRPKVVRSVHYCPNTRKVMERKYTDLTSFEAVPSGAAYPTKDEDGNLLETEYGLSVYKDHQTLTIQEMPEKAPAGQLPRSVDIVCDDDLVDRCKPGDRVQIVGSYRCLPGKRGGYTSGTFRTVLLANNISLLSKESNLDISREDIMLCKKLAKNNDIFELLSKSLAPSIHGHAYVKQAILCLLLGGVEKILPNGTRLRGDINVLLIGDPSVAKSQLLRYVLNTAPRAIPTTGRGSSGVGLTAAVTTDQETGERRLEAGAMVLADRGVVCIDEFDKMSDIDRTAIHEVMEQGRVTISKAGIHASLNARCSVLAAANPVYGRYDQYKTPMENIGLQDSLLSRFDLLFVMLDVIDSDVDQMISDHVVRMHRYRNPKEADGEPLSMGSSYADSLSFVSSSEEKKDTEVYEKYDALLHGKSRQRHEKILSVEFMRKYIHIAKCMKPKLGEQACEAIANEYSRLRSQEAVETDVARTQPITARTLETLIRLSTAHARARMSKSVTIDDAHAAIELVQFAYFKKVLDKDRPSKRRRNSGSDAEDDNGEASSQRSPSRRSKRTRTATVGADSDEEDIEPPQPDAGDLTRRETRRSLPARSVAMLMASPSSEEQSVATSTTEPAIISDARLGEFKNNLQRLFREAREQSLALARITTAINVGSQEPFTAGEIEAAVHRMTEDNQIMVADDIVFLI
UniProt Q26454: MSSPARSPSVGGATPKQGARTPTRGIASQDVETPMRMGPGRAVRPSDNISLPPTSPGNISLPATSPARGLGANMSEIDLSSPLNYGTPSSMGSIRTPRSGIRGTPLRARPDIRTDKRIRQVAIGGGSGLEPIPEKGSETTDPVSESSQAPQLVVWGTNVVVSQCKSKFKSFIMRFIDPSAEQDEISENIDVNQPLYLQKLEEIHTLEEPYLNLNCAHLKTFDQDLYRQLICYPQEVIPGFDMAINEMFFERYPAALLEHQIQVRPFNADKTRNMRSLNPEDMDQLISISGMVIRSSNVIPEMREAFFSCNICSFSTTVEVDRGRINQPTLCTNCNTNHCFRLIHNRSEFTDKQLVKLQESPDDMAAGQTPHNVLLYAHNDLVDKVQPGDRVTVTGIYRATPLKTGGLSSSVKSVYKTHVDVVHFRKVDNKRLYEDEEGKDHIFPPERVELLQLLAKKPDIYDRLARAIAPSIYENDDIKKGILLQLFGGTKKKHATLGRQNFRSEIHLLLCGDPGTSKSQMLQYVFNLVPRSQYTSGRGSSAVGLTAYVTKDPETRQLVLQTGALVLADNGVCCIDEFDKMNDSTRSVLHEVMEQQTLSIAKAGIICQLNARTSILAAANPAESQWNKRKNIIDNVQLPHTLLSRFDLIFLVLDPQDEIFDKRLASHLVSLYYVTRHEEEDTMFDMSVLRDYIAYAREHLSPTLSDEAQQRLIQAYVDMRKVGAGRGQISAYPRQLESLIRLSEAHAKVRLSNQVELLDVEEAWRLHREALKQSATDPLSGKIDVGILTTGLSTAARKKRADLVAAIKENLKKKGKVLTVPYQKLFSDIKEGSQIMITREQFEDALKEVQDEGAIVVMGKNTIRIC
UniProt Q9VGW6: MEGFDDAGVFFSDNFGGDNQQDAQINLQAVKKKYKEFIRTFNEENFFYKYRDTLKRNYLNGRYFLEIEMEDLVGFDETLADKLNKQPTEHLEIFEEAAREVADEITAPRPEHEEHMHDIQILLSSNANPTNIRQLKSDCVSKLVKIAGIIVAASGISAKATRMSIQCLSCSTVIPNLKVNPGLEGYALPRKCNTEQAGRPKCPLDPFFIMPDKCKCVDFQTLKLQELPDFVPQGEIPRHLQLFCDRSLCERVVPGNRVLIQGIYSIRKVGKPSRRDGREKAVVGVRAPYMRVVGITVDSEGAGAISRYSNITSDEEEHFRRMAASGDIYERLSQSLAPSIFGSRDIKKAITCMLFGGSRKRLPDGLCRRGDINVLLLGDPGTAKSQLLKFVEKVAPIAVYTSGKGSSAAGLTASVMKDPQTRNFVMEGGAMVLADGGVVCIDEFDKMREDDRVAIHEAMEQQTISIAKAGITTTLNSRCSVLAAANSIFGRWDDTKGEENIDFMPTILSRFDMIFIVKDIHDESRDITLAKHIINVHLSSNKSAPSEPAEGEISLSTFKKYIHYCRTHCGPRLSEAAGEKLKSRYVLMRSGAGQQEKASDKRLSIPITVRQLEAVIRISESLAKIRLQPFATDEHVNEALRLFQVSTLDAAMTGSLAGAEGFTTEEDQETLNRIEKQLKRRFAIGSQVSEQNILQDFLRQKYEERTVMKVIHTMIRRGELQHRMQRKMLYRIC
UniProt Q9V461: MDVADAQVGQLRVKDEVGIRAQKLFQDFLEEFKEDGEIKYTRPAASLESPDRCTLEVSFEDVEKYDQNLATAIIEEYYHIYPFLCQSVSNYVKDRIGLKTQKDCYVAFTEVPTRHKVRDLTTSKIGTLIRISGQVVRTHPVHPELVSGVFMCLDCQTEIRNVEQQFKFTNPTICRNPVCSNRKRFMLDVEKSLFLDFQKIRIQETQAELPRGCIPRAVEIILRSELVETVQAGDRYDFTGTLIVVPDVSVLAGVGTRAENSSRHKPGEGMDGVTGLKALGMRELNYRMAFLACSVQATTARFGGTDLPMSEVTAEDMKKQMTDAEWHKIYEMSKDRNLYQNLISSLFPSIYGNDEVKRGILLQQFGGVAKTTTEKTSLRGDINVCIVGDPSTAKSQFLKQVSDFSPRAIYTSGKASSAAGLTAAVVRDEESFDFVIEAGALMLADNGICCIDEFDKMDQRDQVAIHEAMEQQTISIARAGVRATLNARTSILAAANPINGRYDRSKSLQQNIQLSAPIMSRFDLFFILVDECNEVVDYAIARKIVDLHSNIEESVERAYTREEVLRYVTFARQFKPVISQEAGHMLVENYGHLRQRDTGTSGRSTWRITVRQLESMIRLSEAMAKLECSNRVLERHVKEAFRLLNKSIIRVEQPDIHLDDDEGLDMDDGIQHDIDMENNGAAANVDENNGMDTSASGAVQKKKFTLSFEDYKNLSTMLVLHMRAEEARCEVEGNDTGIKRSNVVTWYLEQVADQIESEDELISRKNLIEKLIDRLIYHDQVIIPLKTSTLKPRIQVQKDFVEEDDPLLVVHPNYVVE
UniProt Q9XYU0: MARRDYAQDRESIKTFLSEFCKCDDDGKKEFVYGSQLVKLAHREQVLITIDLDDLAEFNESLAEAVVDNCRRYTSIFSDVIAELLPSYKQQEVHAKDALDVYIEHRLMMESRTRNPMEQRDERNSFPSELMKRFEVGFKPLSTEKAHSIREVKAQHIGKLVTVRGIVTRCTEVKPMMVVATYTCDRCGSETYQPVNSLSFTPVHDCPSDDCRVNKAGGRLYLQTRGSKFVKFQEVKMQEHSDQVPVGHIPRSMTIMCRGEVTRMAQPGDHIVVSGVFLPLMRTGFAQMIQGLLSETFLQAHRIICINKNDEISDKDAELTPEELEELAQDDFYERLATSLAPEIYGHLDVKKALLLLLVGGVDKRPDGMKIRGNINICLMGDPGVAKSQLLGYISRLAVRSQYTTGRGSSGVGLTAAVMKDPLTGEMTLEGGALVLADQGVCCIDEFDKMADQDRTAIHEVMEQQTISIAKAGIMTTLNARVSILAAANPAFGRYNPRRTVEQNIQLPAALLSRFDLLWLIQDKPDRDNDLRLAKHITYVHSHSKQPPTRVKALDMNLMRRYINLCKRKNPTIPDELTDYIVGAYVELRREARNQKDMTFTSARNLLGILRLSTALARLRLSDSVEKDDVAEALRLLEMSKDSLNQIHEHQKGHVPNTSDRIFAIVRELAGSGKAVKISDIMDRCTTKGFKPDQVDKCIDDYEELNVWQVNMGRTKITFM

T1: Saccharomyces cerevisiae Csm3 (CBP-tagged) (S. cerevisiae) (UniProt Q04659)
T1 sequence: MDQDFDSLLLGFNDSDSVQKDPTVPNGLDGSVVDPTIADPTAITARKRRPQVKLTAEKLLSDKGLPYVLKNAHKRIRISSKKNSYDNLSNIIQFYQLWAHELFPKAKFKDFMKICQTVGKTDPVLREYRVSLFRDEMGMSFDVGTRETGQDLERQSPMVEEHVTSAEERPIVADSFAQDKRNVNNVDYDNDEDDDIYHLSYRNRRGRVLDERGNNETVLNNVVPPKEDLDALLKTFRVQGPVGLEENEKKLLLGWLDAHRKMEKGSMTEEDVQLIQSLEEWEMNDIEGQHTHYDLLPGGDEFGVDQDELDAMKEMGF


How the values were obtained:
[1] = target: T1, Saccharomyces cerevisiae Csm3 (CBP-tagged) (S. cerevisiae); assay: co-purification (calmodulin affinity resin, gel filtration); Csm3 and Tof1 co-expressed in yeast; lysate on Calmodulin Affinity Resin with 2 mM CaCl2, eluted with EDTA/EGTA, then Superdex 200
[2] = target: Drosophila melanogaster MCM complex (Mcm2-3-4-5-6-7 hetero-hexamer) (Drosophila melanogaster) (UniProt P49735+Q9XYU1+Q26454+Q9VGW6+Q9V461+Q9XYU0); assay: cryo-EM structure; Drosophila CMG fork-affinity purified on a DNA fork with two leading-strand M.HpaII roadblocks, eluted with 5 mM ATP; four states (1A, 1B, 2A, 2B), 3.70-4.46 Å; both purified

| binding [1] | binding [2] | Binder |
| --- | --- | --- |
| binds | – | Saccharomyces cerevisiae Tof1 (protein, UniProt P53840 1-1238) MSADLQQGTTNAADFSLTVLRARIALLATAIGGPDYTSQIDPPPYKLGDDCLACLKDLKRWFKLVDDQQKRWDVAMAVAEYRILTDDLLPILIDWENKCSLAAKLAKNNPDHEEFRNKAYYDKIALNCLQLLVLMTWPLIVTEQSSSNQITLYGELKKHQLVYKKTILSMESGKVLRAAIRLALDVIKIDRLSRTPRDNMVLKLVLNFFRNVIAIEPGEFTINTKKSMPKKGITSIDTLPPNVSMDDISLNTVISSFHKNKVFGFLLTLTSSLSKEFDQDFINIPLLEIMFYFTKDVNQELLFPRQFETGTHSKVVNKNESSSANNIVTSAGFELSKLLQKEHQMRKNVIKHTSARHSRFGGLLSIQTPDKTRLTVSGSQALVDEKIALQKLDDSKKWNKRIIKKHQSVAAEGLPNSLLNSQTGKAIFFTESNGKHFKEFINNFIDSGFNILLHSVTNYFTTEQDRMVTLEQVEYLLFFAWFVKYQLLRSKIDNSADIKQVSEALKEVTFILVSSLLRSAYDLKNWTVTHAGMIAFNELLNLVSRTKAAQEEDSTDIEFIVSRLFSDERIQLLSNLPKIGSKYSLQFMKSCIELTHSVLKVLEQYSDDKTLVIEGKSRRQKKFNISEGDITKLIEEENVDRDEALDILTSSLRSIEVNFQKVQANYMTEPVIETYINFLERFRELEDDSIKKVFSFFHRVFVQAKEQALLFRFDLIILLREMLSPDGLDRMSRSRKYVSQFSDYFLARLKKRLKKSPAWFVGLLFPPLHNSEVGFYQRYGEYNVLNNESMYAAPASQFKPIPDEEALPPSILLDMKYGVLVSTLLDDGKTELLDQLLKHITHTLDIFKSWLTVNVNAGKETVNPPNEYFTLTGVLNNDPIFKDKDYRALLLLIGYSIPRKINEPCFLPGTVEVSDLTVSCELVKKYLSTPFETPNGLPSSSYLLRVRSEKDSFSHNEQDGWEGDDDYDYNDPYIVPDDQILSKSDAAYFKDLDNNASDKLKGTKFSKGIARSKKKDKRKRRKGEAKTNLPMFGDQDDERPQTVRERHGVFSKEFISDSEDDEDLMNPIFFENETYMRWLLDKNNGQLTEDRYIQFAKFAAERMNNGGVVTGDYTSLFGGSIPSIESIRATESSSFAPDKSLISLASHVASEMSIFDVNNNNNNQLSDDDVNSESRNSLGSSQPSNSQNMFQSEVYSRKESTKRSLEASAADESDEDEEAIRLFGKKSRVVLSQGDSDD |
| – | binds | Drosophila melanogaster Cdc45 (protein, UniProt O96989 1-575) MFVQDLRNDFYRQLVGKRILIVVNYDIDAICASRILQALFKYDHMLYTVVPIMGVTGLKRAYGEHQGDVKYVVLVNCGGCVDIVELLQPSDDVTFFICDSHRPLDVCNIYSDRQVCILGDASLEENIPAFETIFYDSEGEDEDEDESSDTEQQHDDSGAGESDQEDQAPRSRKLSRLERHEQRILKQRARRQWESERDRIMFEYTQFSYYGRSAALMVFELAWKLSKDNMDLLWWAIVGITEQLLLGKIESGAYTLELEQIQSHVSRLTNKTNDQNTMSASKITFENDLHLVLYRHWPVTESMRYSRYSSCQLKLWTLRGEKRLHELLLEMGLPLVHARQTYGAMDLVLRKEFFSMVERLAEKYDIADIVYGTFTLSYGYRSRYAAADYVYALLAIMESVKKHKTPEDCFLEASDALSRQHKQLLSAGIDQAKLLHAAVFRQVQSSLEARQVHSAGSFFYYVLQEEHAFFSYPYALGLLARFLLRGHVATSRARQASDLPLIASCPLNASEGMCLLVGIVPVREDSPRNFFGKAFEQAAQKSGVALLQDFFEPAVVQLRQSDLTRFLDSLTVLLA |
